The record followed here is publication PMC4656997.

Amino acid sequences for entries named in this document (tags omitted). A change or cut given only in a name is not applied to a line headed by its entry. Residues count along the entry.
UniProt Q9NYV4: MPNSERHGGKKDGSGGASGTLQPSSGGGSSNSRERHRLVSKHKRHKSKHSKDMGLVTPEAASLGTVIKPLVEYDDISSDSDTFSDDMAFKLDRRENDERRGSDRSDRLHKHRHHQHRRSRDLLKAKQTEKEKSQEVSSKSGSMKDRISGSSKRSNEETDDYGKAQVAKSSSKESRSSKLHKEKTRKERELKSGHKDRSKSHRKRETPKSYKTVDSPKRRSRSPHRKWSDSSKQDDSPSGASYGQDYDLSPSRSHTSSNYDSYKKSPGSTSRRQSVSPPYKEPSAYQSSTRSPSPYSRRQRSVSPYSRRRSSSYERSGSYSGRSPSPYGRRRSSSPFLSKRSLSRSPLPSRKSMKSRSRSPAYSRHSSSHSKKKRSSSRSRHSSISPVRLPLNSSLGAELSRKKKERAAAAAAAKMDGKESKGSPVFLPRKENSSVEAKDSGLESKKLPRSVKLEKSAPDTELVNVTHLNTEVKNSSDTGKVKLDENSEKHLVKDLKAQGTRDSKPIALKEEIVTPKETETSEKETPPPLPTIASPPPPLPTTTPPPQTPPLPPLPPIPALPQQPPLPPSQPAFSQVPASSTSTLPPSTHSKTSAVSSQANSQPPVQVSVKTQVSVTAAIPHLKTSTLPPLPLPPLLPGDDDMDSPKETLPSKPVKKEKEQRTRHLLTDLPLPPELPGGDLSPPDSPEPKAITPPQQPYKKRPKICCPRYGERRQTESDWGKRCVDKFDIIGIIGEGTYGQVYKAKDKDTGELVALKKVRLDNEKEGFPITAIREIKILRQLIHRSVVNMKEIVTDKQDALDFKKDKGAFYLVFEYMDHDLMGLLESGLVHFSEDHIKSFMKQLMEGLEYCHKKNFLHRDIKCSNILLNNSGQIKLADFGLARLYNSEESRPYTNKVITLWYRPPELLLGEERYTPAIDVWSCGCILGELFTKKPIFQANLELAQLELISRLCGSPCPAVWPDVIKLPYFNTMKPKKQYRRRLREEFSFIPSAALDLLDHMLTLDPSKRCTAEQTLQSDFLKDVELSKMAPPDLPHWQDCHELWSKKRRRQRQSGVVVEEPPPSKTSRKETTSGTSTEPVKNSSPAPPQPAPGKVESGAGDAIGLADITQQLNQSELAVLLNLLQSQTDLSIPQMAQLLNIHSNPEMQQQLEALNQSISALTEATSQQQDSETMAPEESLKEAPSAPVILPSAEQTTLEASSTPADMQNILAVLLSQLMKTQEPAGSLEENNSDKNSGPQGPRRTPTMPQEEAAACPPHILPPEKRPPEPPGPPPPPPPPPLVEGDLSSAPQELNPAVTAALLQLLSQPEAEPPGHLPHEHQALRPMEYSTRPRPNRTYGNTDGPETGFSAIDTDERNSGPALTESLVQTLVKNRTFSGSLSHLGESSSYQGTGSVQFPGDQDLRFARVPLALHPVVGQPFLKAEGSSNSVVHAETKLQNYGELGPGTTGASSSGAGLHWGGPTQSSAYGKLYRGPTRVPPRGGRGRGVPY
CDK12^715–1052: residues 715-1052 of Q9NYV4
CDK12^715–1038: residues 715-1038 of Q9NYV4
UniProt O75909: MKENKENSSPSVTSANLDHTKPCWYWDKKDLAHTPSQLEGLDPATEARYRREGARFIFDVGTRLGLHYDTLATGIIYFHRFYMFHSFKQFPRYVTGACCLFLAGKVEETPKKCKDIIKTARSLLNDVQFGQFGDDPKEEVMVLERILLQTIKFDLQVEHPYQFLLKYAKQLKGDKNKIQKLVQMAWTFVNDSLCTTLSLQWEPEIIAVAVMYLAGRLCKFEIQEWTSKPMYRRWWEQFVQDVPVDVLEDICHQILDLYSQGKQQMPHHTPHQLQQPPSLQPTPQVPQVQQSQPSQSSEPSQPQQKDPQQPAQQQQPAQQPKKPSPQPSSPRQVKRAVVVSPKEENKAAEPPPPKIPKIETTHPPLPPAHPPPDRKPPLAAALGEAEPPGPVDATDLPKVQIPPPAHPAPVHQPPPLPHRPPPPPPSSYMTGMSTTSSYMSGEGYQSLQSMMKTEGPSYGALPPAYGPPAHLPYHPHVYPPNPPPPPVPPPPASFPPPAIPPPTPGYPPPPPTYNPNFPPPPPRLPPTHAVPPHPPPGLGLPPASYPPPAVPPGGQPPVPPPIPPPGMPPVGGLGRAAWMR

Assay [1] concerns the target GST-CDK12 (full length CDK12 Isoform 1) (human) (UniProt Q9NYV4). Description: tandem affinity co-purification (Ni-NTA agarose, then glutathione agarose); full length proteins co-infected in Sf9 cells, lysate with additional 0.5 M NaCl, captured on Ni-NTA agarose, eluted with imidazole, then bound to glutathione agarose and eluted with glutathione; fractions checked by SDS-PAGE or Western blotting. A general note: In western blotting, separated proteins are transferred to a membrane and probed.

The target in assay [2] is 6xHis-CDK12 (full length CDK12 Isoform 1) (human) (UniProt Q9NYV4). Described as above.
The target of the next assay is CDK12^715–1038 (human) (UniProt Q9NYV4). Description: crystal structure; CDK12^715–1038/cyclin K^11–267 complex phosphorylated with CAK, 1 mM AMP-PNP added, crystals grown at 4 °C in 20% PEG3350, 0.1 M Bis-tris propane pH 6.5, 0.2 M sodium nitrate, 10% ethylene glycol, 1 mM MgCl2; space group P2_(1), 3.15 Å; both purified.
Another assay addresses CDK12^715–1052 (human) (UniProt Q9NYV4). The assay can be described thus: crystal structure; CDK12^715–1052/cyclin K^11–267 complex, 1 mM AMP-PNP and 5 mM MgCl2 added, crystals grown at 20 °C in 20% PEG3350, 150 mM DL-malic acid; space group P2_(1), 3.15 Å, two complexes in the asymmetric unit; both purified.

Results are given in words; binding and its absence hold for the method and conditions named. Some entries that bind do so weakly or less than the wild type.

As for “6xHis-CycK1 (full length cyclin K1) (from UniProt O75909 1-580)”, the binding entry in assay [1] is listed as “binds”.
Take “GST-CycK1 (full length cyclin K1) (from UniProt O75909 1-580)”: the binding entry in assay [2] was “binds”.
In the case of “CycK^11–267 (from UniProt O75909 11-267) (domain or fragment)”, the binding entry with CDK12^715–1038 (human) and in the assay with CDK12^715–1052 (human) was “binds” each time.
